This is an account of results in PMC12589134.

No constants are given. Whether binding was seen depends on the method and setting. In cells and extracts the contact can be indirect. Some binding calls cover weakened binding; strength is not graded here. Where a sequence is shown, tags or fusion partners need not be part of it.

In the assay the target is T1, mouse Jak2-R1063H-Flag (mouse) (UniProt Q62120).
T1 sequence: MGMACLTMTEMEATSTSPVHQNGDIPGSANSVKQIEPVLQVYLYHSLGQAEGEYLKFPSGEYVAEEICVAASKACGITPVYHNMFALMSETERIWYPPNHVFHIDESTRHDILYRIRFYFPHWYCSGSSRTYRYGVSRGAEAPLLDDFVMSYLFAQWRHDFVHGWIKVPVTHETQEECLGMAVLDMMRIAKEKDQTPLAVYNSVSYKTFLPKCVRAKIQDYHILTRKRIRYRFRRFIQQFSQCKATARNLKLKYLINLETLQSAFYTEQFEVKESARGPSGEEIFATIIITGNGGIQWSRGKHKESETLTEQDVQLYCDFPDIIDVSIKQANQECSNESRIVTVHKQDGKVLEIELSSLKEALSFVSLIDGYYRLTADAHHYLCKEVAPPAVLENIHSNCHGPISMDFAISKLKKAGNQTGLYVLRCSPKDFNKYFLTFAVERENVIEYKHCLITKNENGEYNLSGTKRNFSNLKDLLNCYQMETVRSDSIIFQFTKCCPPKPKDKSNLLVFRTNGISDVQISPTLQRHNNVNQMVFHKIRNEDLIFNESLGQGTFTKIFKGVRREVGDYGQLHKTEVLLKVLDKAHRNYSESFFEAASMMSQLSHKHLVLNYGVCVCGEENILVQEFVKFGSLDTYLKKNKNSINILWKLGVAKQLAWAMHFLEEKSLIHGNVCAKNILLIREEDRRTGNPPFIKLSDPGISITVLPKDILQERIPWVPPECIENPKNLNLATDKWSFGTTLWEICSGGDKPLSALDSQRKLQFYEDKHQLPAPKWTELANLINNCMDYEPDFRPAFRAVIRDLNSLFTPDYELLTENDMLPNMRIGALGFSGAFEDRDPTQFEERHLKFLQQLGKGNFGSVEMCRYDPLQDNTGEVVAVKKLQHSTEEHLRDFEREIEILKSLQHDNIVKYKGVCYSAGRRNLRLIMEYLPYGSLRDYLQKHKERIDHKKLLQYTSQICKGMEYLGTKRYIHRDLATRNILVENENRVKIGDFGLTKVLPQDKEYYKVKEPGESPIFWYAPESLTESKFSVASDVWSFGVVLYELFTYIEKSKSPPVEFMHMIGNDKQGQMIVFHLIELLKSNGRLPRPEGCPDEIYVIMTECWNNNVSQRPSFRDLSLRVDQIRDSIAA
The experiment in a line: co-IP; unstimulated HEK293 cells stably expressing the tagged receptor, Flag-tagged Jak2/JAK2 transiently expressed; co-immunoprecipitation with Flag/V5 antibody, immunoblot, band intensity quantified by ImageJ.

B1: mouse V5-tagged Epor (receptor, UniProt P14753 25-507)
chain: APSPSLPDPKFESKAALLASRGSEELLCFTQRLEDLVCFWEEAASSGMDFNYSFSYQLEGESRKSCSLHQAPTVRGSVRFWCSLPTADTSSFVPLELQVTEASGSPRYHRIIHINEVVLLDAPAGLLARRAEEGSHVVLRWLPPPGAPMTTHIRYEVDVSAGNRAGGTQRVEVLEGRTECVLSNLRGGTRYTFAVRARMAEPSFSGFWSAWSEPASLLTASDLDPLILTLSLILVLISLLLTVLALLSHRRTLQQKIWPGIPSPESEFEGLFTTHKGNFQLWLLQRDGCLWWSPGSSFPEDPPAHLEVLSEPRWAVTQAGDPGADDEGPLLEPVGSEHAQDTYLVLDKWLLPRTPCSENLSGPGGSVDPVTMDEASETSSCPSDLASKPRPEGTSPSSFEYTILDPSSQLLCPRALPPELPPTPPHLKYLYLVVSDSGISTDYSSGGSQGVHGDSSDGPYSHPYENSLVPDSEPLHPGYVACS
As to B1, the binding result is listed as “binds”.
